Assay results as given in patent US20240084285.

Columns and labels:
[1] = target: T1, BspQI type IIS restriction endonuclease (UniProt D2D3S6); test: enzyme reaction in vitro; conditions: backbone cut into five fragments; 50 C 60 min; purified recombinant protein; only the site is given
T1 sequence (looked up, limits assumed): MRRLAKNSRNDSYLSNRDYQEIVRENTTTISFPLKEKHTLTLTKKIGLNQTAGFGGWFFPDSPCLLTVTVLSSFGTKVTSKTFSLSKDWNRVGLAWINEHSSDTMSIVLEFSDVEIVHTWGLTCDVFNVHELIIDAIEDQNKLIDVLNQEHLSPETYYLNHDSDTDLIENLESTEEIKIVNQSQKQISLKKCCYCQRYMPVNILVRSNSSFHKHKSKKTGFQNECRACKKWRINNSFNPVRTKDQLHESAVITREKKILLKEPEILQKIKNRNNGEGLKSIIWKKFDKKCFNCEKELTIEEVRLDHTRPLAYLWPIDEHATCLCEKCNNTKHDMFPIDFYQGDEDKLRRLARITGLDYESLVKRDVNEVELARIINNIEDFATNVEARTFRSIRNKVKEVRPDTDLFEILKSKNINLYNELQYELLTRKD

[2] = target: T2, TelN protelomerase (Escherichia phage N15) (UniProt Q77WP1); test: enzyme reaction in vitro; conditions: plasmid cut into two closed linear fragments; ThermoPol buffer, 30 C 1 h; purified recombinant protein; protein details: New England BioLabs M0651S
T2 sequence (looked up, limits assumed): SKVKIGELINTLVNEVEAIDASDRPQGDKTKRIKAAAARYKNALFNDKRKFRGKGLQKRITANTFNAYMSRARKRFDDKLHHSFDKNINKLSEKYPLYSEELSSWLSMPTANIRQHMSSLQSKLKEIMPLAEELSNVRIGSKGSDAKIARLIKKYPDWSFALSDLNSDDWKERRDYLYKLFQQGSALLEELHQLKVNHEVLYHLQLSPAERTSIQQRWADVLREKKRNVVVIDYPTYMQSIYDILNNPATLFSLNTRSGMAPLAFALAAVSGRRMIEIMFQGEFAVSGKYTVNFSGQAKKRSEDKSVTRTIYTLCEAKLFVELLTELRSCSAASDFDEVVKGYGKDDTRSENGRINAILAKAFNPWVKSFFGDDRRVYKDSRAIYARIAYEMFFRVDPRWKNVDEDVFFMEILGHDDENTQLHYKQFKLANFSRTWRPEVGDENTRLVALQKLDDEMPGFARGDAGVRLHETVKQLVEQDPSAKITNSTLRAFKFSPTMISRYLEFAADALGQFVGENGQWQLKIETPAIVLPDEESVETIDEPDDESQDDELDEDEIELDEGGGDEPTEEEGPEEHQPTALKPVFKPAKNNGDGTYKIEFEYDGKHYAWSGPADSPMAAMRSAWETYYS

Row | Sequence | activity on this sequence [1] | activity on this sequence [2]
1 | GCTCTTC (double strand) [BspQI recognition sequence in vector backbone] | active | 
2 | TATCAGCACACAATTGCCCATTATACGCGCGTATAATGGACTATTGTGTGCTGATA (double strand) [TelN recognition sequence] |  | active

Protein sequences can lack the tags named with them.
